These results are taken from publication PMC5651854.

Chains of the proteins cited; added tags and fusions are not shown. Where a name states a change or a piece, a line headed by the entry shows the natural chain unless it says otherwise. A line that says so, or that is headed by a name, gives the form on record, which may keep a tag or linker.
UniProt Q9NUX5: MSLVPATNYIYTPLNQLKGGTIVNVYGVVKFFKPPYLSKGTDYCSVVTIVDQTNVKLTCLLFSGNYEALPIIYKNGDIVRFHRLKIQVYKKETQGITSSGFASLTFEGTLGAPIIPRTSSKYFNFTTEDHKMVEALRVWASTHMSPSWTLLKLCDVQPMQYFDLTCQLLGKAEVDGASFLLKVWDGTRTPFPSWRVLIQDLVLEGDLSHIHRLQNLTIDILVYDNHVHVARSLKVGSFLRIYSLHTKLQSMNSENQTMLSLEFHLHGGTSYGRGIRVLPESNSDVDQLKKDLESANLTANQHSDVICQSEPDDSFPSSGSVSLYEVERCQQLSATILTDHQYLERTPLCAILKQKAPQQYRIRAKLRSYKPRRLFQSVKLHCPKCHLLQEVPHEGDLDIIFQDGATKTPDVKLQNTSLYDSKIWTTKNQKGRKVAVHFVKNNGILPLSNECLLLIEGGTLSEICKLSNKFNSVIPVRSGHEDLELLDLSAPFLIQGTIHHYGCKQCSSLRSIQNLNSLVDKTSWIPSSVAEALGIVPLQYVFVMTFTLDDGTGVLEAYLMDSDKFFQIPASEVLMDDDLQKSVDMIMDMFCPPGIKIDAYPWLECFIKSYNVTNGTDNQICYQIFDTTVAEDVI
shelterin core(-POT1 +RAP1) (RAP1-TRF2-TIN2-TPP1) (Homo sapiens), one chain, as listed by the source, chain 1 of 4: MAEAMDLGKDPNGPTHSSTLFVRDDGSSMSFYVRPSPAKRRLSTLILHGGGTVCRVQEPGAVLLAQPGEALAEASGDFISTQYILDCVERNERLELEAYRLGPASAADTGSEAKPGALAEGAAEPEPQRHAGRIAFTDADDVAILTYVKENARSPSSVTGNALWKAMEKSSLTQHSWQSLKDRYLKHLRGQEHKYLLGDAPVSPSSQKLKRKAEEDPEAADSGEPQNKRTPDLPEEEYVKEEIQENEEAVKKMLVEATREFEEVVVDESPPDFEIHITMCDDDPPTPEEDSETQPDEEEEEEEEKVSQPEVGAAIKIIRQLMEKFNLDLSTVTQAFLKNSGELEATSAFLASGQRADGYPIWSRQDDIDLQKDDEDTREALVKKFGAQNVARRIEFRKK
shelterin core(-POT1 +RAP1) (RAP1-TRF2-TIN2-TPP1) (Homo sapiens), one chain, as listed by the source, chain 3 of 4: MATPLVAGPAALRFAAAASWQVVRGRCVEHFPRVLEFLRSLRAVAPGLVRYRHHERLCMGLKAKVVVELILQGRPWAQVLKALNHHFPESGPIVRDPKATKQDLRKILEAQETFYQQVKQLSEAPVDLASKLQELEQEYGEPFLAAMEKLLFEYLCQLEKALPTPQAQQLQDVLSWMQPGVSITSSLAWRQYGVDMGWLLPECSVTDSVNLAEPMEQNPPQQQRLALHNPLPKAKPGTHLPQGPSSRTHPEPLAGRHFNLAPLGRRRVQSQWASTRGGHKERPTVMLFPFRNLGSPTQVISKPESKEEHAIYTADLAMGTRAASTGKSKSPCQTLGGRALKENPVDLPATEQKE
shelterin core(-POT1 +RAP1) (RAP1-TRF2-TIN2-TPP1) (Homo sapiens), one chain, as listed by the source, chain 2 of 4: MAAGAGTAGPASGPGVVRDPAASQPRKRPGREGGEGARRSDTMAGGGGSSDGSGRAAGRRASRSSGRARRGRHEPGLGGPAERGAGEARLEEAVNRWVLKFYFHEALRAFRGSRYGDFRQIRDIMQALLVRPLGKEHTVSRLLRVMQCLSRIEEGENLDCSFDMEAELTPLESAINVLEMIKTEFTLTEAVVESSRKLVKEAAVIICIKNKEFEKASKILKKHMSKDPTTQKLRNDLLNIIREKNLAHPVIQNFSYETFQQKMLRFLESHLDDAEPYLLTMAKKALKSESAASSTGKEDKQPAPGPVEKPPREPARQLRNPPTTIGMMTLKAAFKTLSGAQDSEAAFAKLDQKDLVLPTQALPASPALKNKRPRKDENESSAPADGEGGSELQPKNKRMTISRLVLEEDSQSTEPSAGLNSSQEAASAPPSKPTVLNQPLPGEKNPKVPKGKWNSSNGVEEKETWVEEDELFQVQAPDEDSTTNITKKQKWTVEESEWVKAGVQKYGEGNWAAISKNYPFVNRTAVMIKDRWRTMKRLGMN
shelterin core(-POT1 +RAP1) (RAP1-TRF2-TIN2-TPP1) (Homo sapiens), one chain, as listed by the source, chain 4 of 4: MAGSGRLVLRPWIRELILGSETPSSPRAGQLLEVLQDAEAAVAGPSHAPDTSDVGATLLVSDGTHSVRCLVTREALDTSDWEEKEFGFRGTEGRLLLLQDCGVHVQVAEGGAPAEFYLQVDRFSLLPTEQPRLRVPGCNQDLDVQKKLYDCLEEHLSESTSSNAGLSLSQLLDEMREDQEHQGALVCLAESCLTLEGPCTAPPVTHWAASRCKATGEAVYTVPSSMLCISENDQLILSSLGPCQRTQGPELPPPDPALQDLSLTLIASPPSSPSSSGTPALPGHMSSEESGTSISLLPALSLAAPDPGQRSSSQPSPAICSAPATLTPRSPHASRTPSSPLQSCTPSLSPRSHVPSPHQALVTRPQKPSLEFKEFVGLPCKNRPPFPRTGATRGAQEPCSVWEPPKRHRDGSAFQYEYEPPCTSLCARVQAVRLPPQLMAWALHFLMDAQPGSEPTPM

Data set [1] relates to shelterin core(-POT1 +RAP1) (RAP1-TRF2-TIN2-TPP1) (Homo sapiens). The data set can be described thus: EMSA (agarose). The following applies: preferences unchanged vs core(-POT1); Agarose EMSA: 50 mM Tris-HCl pH 8.0, 150 mM KCl, 2 mM MgCl2, 1 mM DTT, 10% glycerol, 0.5 mg/ml BSA, 0.02 mg/ml carrier dsDNA, 30 min 23 C (gel at 4 C); recombinant protein; label: 5'-32P sense strand. (In general: A gel shift assay detects complexes by their altered migration in electrophoresis.)

Another data set addresses POT1 (Homo sapiens) (UniProt Q9NUX5). The data set is described as follows: EMSA (agarose). The following applies: 500 nM protein; Agarose EMSA: 50 mM Tris-HCl pH 8.0, 150 mM KCl, 2 mM MgCl2, 1 mM DTT, 10% glycerol, 0.5 mg/ml BSA, 0.02 mg/ml carrier dsDNA, 30 min 23 C (gel at 4 C); recombinant protein; protein details: His-MBP cleaved; label: 5'-32P on long strand (EMSA).

The exact form of at least one protein or probe is not confirmed. At least one verdict was read from the data and is not stated in words by the source.

In the case of “GACCATGCTTAGGGTTAGGGTTATCATACAA (double strand) [ds-TEL]”, in data set [1], the binding result was “binds”.
“GACCATGCTTAGGGTTAGGGTTATCATACAAGTTAGGGTTAGGG / TTGTATGATAACCCTAACCCTAAGCATGGTC [C8]”: the binding result with POT1 (Homo sapiens) was “binds”.
